Common to all, as to assay: split reporter; COS-7 cells on coverslips transfected with pExp-VN173 and pExp-VC155 fusion vectors (500 ng each), fixed 24 to 31 h after transfection. Where indicated the cells were treated with the proteasome inhibitor MG132. Counted positive at 3 times or more the fluorescence of the 3 control conditions.
Test [1] has as its target T1, RCHY1 (human), BiFC fusion (human) (UniProt Q96PM5).
T1 sequence: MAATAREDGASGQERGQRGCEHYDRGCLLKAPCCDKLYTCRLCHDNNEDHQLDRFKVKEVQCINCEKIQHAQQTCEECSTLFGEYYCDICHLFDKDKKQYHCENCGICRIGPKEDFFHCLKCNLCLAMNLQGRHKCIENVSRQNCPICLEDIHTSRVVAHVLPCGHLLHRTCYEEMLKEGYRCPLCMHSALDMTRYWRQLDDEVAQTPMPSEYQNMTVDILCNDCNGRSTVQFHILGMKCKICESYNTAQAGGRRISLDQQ

By UniProt entry, the sequences of proteins in these tests, tags left out. Where a name states a change or a piece, a line headed by the entry shows the natural chain unless it says otherwise.
UniProt O43248: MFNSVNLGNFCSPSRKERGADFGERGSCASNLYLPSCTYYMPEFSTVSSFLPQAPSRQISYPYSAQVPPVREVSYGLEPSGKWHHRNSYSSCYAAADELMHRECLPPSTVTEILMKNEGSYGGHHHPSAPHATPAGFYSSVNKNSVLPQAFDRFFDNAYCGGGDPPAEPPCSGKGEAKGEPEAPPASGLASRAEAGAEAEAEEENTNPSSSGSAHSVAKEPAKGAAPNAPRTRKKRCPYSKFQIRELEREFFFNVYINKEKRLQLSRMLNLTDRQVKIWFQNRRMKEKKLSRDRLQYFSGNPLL
UniProt O43364: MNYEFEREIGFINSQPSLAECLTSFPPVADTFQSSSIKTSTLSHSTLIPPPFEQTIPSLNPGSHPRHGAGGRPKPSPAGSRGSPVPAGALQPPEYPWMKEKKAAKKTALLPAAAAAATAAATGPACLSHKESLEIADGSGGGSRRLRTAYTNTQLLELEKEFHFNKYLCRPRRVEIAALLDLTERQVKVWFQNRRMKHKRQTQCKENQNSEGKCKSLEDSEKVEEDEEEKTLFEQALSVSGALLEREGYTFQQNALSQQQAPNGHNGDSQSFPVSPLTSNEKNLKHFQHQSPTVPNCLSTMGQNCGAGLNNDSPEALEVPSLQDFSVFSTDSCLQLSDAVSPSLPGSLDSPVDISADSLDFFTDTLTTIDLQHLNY
UniProt P46527: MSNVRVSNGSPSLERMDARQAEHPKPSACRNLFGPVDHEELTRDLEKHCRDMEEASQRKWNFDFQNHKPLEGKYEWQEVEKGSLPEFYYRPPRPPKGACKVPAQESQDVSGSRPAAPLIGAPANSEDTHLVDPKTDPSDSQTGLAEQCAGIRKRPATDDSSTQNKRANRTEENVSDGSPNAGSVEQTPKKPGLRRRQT
UniProt P09067: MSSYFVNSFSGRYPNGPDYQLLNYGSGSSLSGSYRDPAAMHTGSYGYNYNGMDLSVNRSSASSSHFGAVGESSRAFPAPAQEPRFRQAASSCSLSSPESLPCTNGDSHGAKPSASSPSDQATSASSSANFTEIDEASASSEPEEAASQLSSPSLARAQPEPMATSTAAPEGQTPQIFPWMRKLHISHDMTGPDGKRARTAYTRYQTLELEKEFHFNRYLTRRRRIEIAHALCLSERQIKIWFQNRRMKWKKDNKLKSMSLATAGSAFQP
UniProt P28358: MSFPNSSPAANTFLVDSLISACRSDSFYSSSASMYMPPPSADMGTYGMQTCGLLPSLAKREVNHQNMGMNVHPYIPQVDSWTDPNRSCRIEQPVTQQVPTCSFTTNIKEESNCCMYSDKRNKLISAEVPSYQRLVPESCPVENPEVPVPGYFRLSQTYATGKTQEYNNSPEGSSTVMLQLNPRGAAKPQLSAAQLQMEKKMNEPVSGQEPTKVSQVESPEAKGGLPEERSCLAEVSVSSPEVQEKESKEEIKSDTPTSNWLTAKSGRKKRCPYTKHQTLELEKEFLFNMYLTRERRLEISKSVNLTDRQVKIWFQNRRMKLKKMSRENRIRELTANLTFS
UniProt P49639: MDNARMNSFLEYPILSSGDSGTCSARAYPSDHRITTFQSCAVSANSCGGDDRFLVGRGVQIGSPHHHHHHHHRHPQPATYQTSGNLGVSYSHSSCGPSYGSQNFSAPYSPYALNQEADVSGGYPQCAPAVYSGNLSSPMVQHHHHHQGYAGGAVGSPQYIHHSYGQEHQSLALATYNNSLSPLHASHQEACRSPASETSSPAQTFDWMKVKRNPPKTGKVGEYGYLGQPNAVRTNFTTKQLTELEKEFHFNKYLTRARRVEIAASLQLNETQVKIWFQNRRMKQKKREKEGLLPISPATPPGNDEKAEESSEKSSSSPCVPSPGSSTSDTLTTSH
UniProt P31245: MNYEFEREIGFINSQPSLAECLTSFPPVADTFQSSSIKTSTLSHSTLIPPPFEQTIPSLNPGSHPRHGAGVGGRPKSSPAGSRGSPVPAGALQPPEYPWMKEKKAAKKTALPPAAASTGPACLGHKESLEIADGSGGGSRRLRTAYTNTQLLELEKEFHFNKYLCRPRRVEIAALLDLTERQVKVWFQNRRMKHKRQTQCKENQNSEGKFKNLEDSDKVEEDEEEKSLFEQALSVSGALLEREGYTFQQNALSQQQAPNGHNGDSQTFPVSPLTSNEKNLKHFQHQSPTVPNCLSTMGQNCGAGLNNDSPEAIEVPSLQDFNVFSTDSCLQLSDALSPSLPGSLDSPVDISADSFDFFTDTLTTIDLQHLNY
UniProt P09017: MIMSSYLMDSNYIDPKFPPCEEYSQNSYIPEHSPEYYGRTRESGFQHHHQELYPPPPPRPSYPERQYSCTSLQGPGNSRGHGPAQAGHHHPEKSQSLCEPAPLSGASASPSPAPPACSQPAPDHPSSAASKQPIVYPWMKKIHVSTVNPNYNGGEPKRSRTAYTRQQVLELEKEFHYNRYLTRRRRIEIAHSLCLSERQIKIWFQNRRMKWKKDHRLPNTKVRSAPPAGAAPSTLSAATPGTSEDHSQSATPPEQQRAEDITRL
UniProt O43365: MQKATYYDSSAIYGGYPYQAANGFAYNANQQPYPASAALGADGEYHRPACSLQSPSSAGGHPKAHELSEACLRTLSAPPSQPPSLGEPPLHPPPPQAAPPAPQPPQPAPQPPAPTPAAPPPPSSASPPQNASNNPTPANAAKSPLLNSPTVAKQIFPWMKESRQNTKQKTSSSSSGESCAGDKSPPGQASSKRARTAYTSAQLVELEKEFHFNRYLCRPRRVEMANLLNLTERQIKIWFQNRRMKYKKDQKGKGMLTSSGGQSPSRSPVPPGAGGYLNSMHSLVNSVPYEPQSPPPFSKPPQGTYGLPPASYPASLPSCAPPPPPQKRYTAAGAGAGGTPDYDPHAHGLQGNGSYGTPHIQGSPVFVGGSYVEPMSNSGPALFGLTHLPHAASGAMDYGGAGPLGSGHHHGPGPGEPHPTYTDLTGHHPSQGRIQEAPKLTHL
UniProt P14652: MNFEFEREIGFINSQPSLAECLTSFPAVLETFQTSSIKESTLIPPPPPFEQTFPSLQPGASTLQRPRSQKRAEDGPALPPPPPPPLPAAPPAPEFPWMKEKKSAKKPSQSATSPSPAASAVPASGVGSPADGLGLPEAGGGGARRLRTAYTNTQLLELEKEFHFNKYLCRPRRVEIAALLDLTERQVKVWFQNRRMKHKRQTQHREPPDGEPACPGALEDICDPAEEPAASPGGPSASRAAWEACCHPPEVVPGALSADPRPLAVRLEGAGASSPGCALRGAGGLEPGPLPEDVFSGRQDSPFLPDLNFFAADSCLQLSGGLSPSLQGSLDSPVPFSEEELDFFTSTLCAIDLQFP
UniProt P14653: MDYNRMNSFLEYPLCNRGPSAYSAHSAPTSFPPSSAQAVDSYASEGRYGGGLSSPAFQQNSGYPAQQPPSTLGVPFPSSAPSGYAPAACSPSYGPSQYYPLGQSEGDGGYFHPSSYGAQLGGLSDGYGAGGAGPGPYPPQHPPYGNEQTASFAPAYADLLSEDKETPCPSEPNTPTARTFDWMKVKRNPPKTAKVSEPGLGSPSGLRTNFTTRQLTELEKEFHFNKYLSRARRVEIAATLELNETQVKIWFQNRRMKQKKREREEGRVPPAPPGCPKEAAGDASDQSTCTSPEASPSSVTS

Test [2] deals with T2, Rchy1 (mouse), BiFC fusion (mouse) (UniProt Q9CR50).
T2 sequence: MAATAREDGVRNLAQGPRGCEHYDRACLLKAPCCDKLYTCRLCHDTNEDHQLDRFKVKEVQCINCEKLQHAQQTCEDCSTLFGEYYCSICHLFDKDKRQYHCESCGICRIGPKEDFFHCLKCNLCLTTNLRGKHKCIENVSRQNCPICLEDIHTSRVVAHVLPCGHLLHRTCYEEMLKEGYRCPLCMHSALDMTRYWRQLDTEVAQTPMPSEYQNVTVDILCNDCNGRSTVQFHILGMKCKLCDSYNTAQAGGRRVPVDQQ

Test [3] has as its target T3, RCHY1 (human), BiFC fusion (human), Q96PM5.
T3 chain: T1 sequence
As to conditions: remark: other sources report otherwise.

Results are given in words; binding and its absence hold for the method and conditions named. Binding seen in cells or lysates may run through a third protein. Some entries that bind do so weakly or less than the wild type. Sequences can lack the tags named with a protein.

On to “HOXC11 (human), BiFC fusion (from UniProt O43248 1-304)”, for which, in test [1], the binding entry is “binds”.

Consider “HOXA2 (human), BiFC fusion (from UniProt O43364 1-376)”, for which the binding entry in test [1] is given as “binds”.

Consider “p27^Kip1, BiFC fusion (from UniProt P46527 1-198)”, for which, in test [1], the binding entry was “binds”.

Regarding “HOXB5 (human), BiFC fusion (from UniProt P09067 1-269)”, in test [1], the binding result was “binds”.

On to “HOXD10 (human), BiFC fusion (from UniProt P28358 1-340)”, for which the binding result in test [1] is listed as “binds”.

“HOXA1 (human), BiFC fusion (from UniProt P49639 1-335)”: the binding result in test [1] was “binds”.

On to “Hoxa2^ΔHD [δ139–198], BiFC fusion (from UniProt P31245 1-372)”, for which, in test [1], the binding result is “binds”.

In the case of “HOXC4 (human), BiFC fusion (from UniProt P09017 1-264)”, the binding entry in test [1] is “binds”.

As for “Hoxa2^HD [139–198], BiFC fusion (from UniProt P31245 139-198) (domain or fragment)”, in test [1], the binding result was “binds”.

Consider “Hoxa2^ΔC [1–198], BiFC fusion (from UniProt P31245 1-198) (domain or fragment)”, for which the binding result in test [1] was “binds”.

Take “Hoxa2^ΔN [138–372], BiFC fusion (from UniProt P31245 138-372) (domain or fragment)”: the binding entry in test [1] is recorded as “binds”.

With “HOXA3 (human), BiFC fusion (from UniProt O43365 1-443)”, the binding entry in test [1] is recorded as “binds”.

As for “HOXB2 (human), BiFC fusion (from UniProt P14652 1-356)”, the binding result in test [1] is listed as “binds”.

For “Hoxa2 (mouse), BiFC fusion (from UniProt P31245 1-372)”, in test [2], the binding entry is listed as “binds”.

Consider “HOXB1 (human), BiFC fusion (from UniProt P14653 1-301)”, for which the binding entry in test [1] is given as “binds”.

B1: RCHY1 (human), BiFC fusion, Q96PM5 1-261 (protein)
chain: T1 sequence
As to B1, the binding entry in test [3] is on record as “binds”.

For the origin of these results see paper PMC4619689.
